Measurements from the supplement of paper PMC10849652.
The list shows a part of the results.

Chains of the proteins cited; added tags and fusions are not shown. Lines headed by an entry give the natural chain unless they say otherwise; changes in a name come on top.
UniProt Q9H8U3: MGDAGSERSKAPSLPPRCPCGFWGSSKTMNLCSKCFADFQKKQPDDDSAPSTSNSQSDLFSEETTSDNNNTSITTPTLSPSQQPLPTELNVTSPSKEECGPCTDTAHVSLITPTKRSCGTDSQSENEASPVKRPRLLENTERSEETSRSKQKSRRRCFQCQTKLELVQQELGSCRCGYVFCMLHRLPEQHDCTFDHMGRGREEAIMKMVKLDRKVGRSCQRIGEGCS
UniProt Q86U90: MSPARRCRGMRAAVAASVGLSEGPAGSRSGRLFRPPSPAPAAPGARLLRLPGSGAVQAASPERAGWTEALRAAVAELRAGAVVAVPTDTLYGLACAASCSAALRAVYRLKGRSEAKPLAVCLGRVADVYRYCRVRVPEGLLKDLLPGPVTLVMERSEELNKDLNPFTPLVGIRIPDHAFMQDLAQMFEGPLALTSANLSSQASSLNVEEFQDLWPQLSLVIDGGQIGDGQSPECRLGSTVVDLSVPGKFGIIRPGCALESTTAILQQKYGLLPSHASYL
UniProt Q9UBH6: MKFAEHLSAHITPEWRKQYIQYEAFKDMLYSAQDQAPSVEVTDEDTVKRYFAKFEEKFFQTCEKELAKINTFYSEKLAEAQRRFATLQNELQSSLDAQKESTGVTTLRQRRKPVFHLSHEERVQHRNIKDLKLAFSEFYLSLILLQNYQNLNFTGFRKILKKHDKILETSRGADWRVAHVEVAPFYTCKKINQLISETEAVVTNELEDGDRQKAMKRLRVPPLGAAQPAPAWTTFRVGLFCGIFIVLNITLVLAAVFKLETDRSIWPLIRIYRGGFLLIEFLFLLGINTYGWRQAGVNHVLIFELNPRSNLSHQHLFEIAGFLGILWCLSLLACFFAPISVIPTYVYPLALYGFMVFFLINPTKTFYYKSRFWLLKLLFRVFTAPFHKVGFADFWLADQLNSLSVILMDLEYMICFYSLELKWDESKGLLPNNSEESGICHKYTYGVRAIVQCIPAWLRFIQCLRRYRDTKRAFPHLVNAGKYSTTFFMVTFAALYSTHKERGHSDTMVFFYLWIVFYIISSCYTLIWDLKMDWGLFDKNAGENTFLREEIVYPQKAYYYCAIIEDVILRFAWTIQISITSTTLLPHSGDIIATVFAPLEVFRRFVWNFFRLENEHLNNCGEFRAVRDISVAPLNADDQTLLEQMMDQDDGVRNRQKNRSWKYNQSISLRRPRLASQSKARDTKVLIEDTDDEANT
UniProt Q9BYJ9: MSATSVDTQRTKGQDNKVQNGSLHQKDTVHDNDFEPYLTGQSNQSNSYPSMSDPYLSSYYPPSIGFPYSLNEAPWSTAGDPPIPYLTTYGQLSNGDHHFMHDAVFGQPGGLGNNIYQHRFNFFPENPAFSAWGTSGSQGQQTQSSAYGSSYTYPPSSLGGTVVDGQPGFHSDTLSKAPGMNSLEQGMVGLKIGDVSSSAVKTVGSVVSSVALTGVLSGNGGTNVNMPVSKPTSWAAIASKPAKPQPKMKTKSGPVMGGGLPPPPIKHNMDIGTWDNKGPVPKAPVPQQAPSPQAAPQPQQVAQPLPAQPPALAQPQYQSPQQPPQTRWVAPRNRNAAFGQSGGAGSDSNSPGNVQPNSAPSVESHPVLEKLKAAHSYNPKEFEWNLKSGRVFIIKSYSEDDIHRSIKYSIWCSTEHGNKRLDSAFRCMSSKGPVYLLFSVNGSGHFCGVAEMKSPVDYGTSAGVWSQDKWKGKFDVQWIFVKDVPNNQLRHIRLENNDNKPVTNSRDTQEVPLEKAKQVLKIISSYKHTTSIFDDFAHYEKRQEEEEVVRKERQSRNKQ
UniProt Q7Z3T8: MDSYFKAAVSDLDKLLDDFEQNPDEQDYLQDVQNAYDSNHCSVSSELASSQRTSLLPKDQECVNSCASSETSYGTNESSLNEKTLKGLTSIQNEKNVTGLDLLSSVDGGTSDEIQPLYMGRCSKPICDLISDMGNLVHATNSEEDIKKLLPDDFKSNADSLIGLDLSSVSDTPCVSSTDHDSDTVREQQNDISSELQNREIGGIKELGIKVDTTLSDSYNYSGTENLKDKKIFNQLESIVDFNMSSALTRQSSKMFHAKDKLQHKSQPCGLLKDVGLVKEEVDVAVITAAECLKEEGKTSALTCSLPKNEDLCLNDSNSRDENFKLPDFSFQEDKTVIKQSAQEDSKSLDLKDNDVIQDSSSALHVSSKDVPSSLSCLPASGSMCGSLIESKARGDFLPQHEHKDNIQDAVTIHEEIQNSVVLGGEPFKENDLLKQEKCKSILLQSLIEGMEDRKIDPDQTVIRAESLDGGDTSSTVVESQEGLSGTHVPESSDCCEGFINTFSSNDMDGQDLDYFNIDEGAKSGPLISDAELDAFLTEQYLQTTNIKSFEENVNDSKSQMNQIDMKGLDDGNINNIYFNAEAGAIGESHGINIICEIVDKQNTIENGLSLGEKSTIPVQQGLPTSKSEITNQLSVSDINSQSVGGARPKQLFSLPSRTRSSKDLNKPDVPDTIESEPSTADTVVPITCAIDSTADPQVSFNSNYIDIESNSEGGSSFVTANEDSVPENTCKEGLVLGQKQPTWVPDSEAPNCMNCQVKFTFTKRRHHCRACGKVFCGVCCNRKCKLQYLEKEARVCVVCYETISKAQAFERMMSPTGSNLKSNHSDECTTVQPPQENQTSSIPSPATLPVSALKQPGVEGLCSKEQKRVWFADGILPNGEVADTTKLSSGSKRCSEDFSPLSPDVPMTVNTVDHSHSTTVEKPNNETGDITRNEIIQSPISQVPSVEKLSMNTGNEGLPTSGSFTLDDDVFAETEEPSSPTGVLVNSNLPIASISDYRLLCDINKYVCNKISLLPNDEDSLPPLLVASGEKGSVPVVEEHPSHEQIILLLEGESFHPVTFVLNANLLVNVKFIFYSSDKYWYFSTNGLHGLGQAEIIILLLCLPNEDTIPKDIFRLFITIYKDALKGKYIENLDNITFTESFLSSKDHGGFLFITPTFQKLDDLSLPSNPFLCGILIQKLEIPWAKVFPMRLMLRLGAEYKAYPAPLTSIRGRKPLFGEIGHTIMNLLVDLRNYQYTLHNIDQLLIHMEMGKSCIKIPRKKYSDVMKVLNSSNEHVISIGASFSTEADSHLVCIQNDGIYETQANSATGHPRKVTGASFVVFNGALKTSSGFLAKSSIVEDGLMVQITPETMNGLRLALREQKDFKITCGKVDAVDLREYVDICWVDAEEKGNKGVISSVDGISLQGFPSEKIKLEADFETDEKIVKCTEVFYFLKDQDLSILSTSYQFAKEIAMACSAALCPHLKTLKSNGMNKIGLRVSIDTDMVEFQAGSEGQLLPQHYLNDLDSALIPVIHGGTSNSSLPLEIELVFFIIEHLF
UniProt P62699: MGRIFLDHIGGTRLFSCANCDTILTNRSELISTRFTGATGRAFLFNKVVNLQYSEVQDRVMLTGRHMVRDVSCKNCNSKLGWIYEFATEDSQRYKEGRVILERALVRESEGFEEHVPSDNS
UniProt O75132: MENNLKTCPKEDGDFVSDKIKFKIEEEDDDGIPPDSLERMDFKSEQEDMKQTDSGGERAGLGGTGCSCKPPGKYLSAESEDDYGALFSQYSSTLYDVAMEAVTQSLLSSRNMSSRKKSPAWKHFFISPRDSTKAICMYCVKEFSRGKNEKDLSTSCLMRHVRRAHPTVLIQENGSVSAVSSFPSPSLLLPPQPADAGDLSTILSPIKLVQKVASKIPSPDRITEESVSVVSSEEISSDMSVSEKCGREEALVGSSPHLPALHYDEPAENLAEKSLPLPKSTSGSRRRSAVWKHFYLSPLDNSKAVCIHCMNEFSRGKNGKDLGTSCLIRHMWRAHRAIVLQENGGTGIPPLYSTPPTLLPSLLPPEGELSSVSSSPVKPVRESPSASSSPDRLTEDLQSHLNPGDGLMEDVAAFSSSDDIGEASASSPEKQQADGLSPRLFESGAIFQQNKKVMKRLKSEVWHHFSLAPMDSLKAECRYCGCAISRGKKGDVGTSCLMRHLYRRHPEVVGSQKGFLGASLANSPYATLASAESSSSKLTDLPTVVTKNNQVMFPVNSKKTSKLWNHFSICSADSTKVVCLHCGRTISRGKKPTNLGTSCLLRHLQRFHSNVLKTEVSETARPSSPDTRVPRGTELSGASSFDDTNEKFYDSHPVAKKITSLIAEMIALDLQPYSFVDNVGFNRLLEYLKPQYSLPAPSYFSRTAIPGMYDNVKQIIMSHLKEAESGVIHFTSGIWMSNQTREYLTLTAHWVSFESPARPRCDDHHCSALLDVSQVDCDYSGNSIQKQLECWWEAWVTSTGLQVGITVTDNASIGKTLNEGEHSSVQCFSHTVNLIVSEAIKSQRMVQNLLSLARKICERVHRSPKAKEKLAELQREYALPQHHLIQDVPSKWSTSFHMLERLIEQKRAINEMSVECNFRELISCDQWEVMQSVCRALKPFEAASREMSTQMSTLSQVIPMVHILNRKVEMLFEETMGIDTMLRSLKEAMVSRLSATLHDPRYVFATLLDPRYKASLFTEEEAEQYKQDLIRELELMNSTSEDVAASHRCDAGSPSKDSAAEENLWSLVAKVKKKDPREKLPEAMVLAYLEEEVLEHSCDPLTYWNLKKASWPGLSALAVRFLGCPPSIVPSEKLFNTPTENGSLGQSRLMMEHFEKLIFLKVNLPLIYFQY
UniProt Q9BSR8: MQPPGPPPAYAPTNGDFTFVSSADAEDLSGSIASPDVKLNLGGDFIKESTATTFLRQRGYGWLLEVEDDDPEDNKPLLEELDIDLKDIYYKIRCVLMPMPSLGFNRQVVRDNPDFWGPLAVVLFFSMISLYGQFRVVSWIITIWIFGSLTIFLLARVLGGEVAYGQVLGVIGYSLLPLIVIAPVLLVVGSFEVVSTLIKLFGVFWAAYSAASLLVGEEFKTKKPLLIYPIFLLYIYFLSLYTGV
UniProt Q9BW85: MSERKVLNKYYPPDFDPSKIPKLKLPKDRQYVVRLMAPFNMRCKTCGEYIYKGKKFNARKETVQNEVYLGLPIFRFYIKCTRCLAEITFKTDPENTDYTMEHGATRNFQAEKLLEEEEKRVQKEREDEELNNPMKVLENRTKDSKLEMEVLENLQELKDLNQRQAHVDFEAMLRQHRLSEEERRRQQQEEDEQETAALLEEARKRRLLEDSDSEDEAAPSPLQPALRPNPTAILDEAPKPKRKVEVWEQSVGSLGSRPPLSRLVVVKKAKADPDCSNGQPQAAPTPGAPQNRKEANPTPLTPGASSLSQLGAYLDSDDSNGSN
UniProt Q9GZM5: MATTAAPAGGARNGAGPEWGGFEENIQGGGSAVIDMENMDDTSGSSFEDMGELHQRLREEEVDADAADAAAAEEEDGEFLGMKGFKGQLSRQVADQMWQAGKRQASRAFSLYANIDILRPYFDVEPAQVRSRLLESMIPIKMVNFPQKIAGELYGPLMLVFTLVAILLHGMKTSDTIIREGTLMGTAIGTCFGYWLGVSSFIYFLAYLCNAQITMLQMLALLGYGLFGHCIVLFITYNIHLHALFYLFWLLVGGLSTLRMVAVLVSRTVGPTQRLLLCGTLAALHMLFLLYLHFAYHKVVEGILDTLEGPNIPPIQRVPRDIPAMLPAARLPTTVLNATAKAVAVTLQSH
UniProt Q5VVQ6: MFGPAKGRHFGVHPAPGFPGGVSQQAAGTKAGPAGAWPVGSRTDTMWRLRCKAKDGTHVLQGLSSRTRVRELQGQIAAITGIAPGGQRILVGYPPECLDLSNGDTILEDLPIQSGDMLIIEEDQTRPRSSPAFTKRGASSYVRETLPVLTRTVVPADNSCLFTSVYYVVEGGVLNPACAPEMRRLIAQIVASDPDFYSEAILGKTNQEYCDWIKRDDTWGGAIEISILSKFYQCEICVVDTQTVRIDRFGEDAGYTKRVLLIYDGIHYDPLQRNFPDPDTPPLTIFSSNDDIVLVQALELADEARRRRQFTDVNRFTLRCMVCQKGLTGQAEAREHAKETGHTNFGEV
UniProt Q96JP5: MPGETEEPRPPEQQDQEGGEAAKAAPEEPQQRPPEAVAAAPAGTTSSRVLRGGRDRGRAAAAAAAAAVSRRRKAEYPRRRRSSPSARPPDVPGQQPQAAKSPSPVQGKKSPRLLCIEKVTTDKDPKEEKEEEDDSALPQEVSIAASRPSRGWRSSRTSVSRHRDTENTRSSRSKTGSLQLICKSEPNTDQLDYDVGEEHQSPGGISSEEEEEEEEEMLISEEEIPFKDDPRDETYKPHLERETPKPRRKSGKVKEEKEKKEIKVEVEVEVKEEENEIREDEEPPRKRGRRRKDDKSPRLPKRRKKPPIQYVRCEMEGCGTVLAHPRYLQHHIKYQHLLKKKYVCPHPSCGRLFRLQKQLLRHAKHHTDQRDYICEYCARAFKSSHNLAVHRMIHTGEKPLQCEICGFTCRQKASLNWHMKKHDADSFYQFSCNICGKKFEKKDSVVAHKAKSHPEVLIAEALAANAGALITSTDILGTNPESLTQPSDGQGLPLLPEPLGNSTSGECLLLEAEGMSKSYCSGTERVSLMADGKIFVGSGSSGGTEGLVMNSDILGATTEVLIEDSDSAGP

Legend:
Test in all cases: log2 fold change, soluble protein after heating vs DMSO (PISA); higher = thermal stabilisation; K562 lysate, 10 uM; active = over 0.2 and 3.5 SD of the protein, either way, in both replicates (recomputed)
vemurafenib = compound: CCCS(=O)(=O)Nc1ccc(F)c(C(=O)c2c[nH]c3ncc(-c4ccc(Cl)cc4)cc23)c1F [vemurafenib]
Summary of the method: (§1)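 K562 pellets were dounce-homogenised in PBS pH 7.4 with 1 mM MgCl2, and the crude extract at 1 mg/mL protein was treated with 10 μM compound for 30 min. Aliquots were heated for 3 min across 48°C-58°C, pooled, and brought to 0.5% NP-40 at 4°C; soluble protein was the supernatant after 21,000xg for 90 min. Soluble protein was quantified by TMTpro 16plex LC-MS/MS with channel sums equalised, and reported as log2 fold change in thermal stability against DMSO controls, with values from duplicates.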

[1] = compound: CCCS(=O)(=O)Nc1ccc(F)c(C(=O)c2c[nH]c3ncc(Cl)cc23)c1F
Summary of the method: as §1

barasertib = compound: CCN(CCCOc1ccc2c(Nc3cc(CC(=O)Nc4cccc(F)c4)[nH]n3)ncnc2c1)CCOP(=O)(O)O [barasertib]
Summary of the method: as §1

[2] = compound: CC[C@@H]1C(=O)N(C)c2cnc(Nc3ccc(C(=O)NC4CCN(C)CC4)cc3OC)nc2N1C1CCCC1
Summary of the method: as §1

volasertib = compound: CC[C@@H]1C(=O)N(C)c2cnc(Nc3ccc(C(=O)N[C@H]4CC[C@H](N5CCN(CC6CC6)CC5)CC4)cc3OC)nc2N1C(C)C [volasertib]
Summary of the method: as §1

[3] = compound: CCn1c(C(=O)N(C2CC2)C2CC2)cc2c3c(ncn3C)c(Nc3cc(C)n(C)n3)nc21
Summary of the method: as §1

[4] = compound: CCn1cc(-c2ccnc3[nH]c(-c4cccc(CN(C)C)c4)cc23)c(-c2ccc(NC(=O)N(C)C)cc2)n1
Summary of the method: as §1

[5] = compound: CN1CCC(CNc2ccc3ncc(-c4cccc(OC(F)(F)F)c4)n3n2)CC1
Summary of the method: as §1

saracatinib = compound: CN1CCN(CCOc2cc(OC3CCOCC3)c3c(Nc4c(Cl)ccc5c4OCO5)ncnc3c2)CC1 [saracatinib]
Summary of the method: as §1

sotrastaurin = compound: CN1CCN(c2nc(C3=C(c4c[nH]c5ccccc45)C(=O)NC3=O)c3ccccc3n2)CC1 [sotrastaurin]
Summary of the method: as §1

Measured: log2 fold change

YKT6 (UniProt O15498)
inactive: vemurafenib -0.033 | [1] -0.028 | barasertib 0.021 | [2] 0.017 | volasertib 0.031 | [3] 0.026 | [4] 0.065 | [5] -0.156 | saracatinib -0.015 | sotrastaurin 0.015

ZC2HC1A (UniProt Q96GY0)
inactive: vemurafenib 0.13 | [1] -0.032 | barasertib 0.078 | [2] 0.086 | volasertib 0.031 | [3] 0.035 | [4] -0.057 | [5] 0.117 | saracatinib -0.011 | sotrastaurin 0.016

YWHAQ (UniProt P27348)
active: [4] 0.625
inactive: vemurafenib -0.029 | [1] 0.009 | barasertib -0.023 | [2] 0.025 | volasertib 0.023 | [3] -0.003 | [5] -0.092 | saracatinib -0.012 | sotrastaurin -0.047

ZFAND3 (UniProt Q9H8U3)
inactive: vemurafenib -0.126 | [1] -0.037 | barasertib 0.083 | [2] 0.116 | volasertib -0.049 | [3] 0.006 | [4] 0.116 | [5] -0.037 | saracatinib -0.05 | sotrastaurin 0.156

YRDC (UniProt Q86U90)
inactive: vemurafenib 0.03 | [1] 0.093 | barasertib 0.019 | [2] 0.04 | volasertib -0.005 | [3] -0.045 | [4] -0.019 | [5] 0.089 | saracatinib -0.043 | sotrastaurin -0.002

ZFYVE21 isoform 2 (UniProt Q9BQ24)
inactive: vemurafenib 0 | [1] -0.024 | barasertib 0.024 | [2] 0.053 | volasertib -0.239 | [3] -0.11 | [4] -0.009 | [5] 0.023 | saracatinib 0.056 | sotrastaurin 0.036

XPR1 (UniProt Q9UBH6)
inactive: vemurafenib -0.033 | [1] 0.001 | barasertib 0.004 | [2] 0.083 | volasertib -0.084 | [3] 0.016 | [4] 0 | [5] -0.001 | saracatinib -0.062 | sotrastaurin 0.063

YTHDF1 (UniProt Q9BYJ9)
inactive: vemurafenib 0.11 | [1] 0.041 | barasertib 0.131 | [2] 0.01 | volasertib -0.013 | [3] -0.008 | [4] -0.015 | [5] -0.03 | saracatinib 0.141 | sotrastaurin 0.016

ZFYVE16 (UniProt Q7Z3T8)
inactive: vemurafenib 0.005 | [1] 0.035 | barasertib -0.002 | [2] 0.025 | volasertib -0.02 | [3] -0.005 | [4] -0.052 | [5] 0.011 | saracatinib 0.036 | sotrastaurin 0.011

YIPF5 isoform 3 (UniProt Q969M3)
inactive: vemurafenib -0.106 | [1] -0.049 | barasertib 0.02 | [2] 0.006 | volasertib -0.032 | [3] 0.005 | [4] -0.018 | [5] 0.148 | saracatinib -0.036 | sotrastaurin 0.134

YPEL5 (UniProt P62699)
inactive: vemurafenib 0.038 | [1] 0.013 | barasertib 0.044 | [2] -0.005 | volasertib 0.023 | [3] 0.093 | [4] -0.055 | [5] 0.054 | saracatinib -0.033 | sotrastaurin -0.08

XPO1 (UniProt O14980)
inactive: vemurafenib 0.015 | [1] 0.005 | barasertib 0.023 | [2] -0.055 | volasertib -0.026 | [3] 0.013 | [4] -0.05 | [5] 0.019 | saracatinib 0.033 | sotrastaurin 0.022

ZBED4 (UniProt O75132)
inactive: vemurafenib 0.052

XPO7 (UniProt Q9UIA9)
inactive: vemurafenib -0.008 | [1] 0 | barasertib 0.012 | [2] -0.009 | volasertib 0 | [3] 0.018 | [4] -0.046 | [5] 0.017 | saracatinib 0.009 | sotrastaurin 0.015

YIPF4 (UniProt Q9BSR8)
inactive: vemurafenib 0.013 | [1] 0.025 | barasertib -0.023 | [2] -0.026 | volasertib -0.005 | [3] 0.012 | [4] -0.024 | [5] -0.017 | saracatinib 0.016 | sotrastaurin 0.017

YJU2 (UniProt Q9BW85)
inactive: vemurafenib 0.032 | [1] -0.01 | barasertib 0.004 | [2] 0.09 | volasertib 0.001 | [3] 0.015 | [4] -0.057 | [5] 0.021 | saracatinib 0.011 | sotrastaurin 0.018

XRCC1 (UniProt P18887)
inactive: vemurafenib -0.004 | [1] -0.019 | barasertib -0.014 | [2] -0.019 | volasertib -0.004 | [3] -0.035 | [4] 0.106 | [5] -0.126 | saracatinib 0.026 | sotrastaurin 0.007

XPNPEP3 (UniProt Q9NQH7)
inactive: vemurafenib 0.037 | [1] -0.014 | barasertib -0.042 | [2] 0.046 | volasertib 0.049 | [3] -0.022 | [4] -0.032 | [5] 0.051 | saracatinib 0.013 | sotrastaurin -0.031

YIPF3 (UniProt Q9GZM5)
inactive: vemurafenib -0.019 | [1] 0 | barasertib 0.142 | [2] -0.026 | volasertib 0.036 | [3] 0.014 | [4] -0.096 | [5] 0 | saracatinib -0.035 | sotrastaurin -0.015

YY1 (UniProt P25490)
inactive: vemurafenib -0.049 | [1] -0.005 | barasertib 0.047 | [2] -0.126 | volasertib 0.011 | [3] 0.054 | [4] 0.097 | [5] -0.122 | saracatinib 0.012 | sotrastaurin -0.043

YEATS4 (UniProt O95619)
inactive: vemurafenib -0.032 | [1] 0.003 | barasertib 0.05 | [2] 0.045 | volasertib -0.028 | [3] 0.014 | [5] 0 | saracatinib 0.031 | sotrastaurin 0.022
active: [4] 0.746

XRN2 (UniProt Q9H0D6)
inactive: vemurafenib -0.078 | [1] -0.009 | barasertib -0.054 | [2] 0.017 | volasertib -0.005 | [3] 0.02 | [4] 0.037 | [5] 0.013 | saracatinib -0.012 | sotrastaurin -0.018

YDJC (UniProt A8MPS7)
inactive: vemurafenib -0.022 | [1] 0.006 | barasertib 0.017 | [2] 0.01 | volasertib -0.038 | [3] -0.063 | [4] 0.012 | [5] 0.055 | saracatinib 0.024 | sotrastaurin 0.008

Taken from the results shown (2 entries):
XRN2 (UniProt Q9H0D6)
inactive: vemurafenib -0.078 | [1] -0.009 | barasertib -0.054 | [2] 0.017 | volasertib -0.005 | [3] 0.02 | [4] 0.037 | [5] 0.013 | saracatinib -0.012 | sotrastaurin -0.018

YDJC (UniProt A8MPS7)
inactive: vemurafenib -0.022 | [1] 0.006 | barasertib 0.017 | [2] 0.01 | volasertib -0.038 | [3] -0.063 | [4] 0.012 | [5] 0.055 | saracatinib 0.024 | sotrastaurin 0.008

Next results

YOD1 (UniProt Q5VVQ6)
inactive: vemurafenib -0.012 | [1] 0.015 | barasertib 0.038 | [2] -0.056 | volasertib -0.015 | [3] -0.017 | [4] -0.047 | [5] -0.015 | saracatinib -0.009 | sotrastaurin 0.05

YBX3 (UniProt P16989)
inactive: vemurafenib 0.044 | [1] -0.011 | barasertib -0.045 | [2] 0.079 | volasertib -0.002 | [3] -0.026 | [4] 0.045 | [5] 0.034 | saracatinib -0.008 | sotrastaurin -0.005

XYLB (UniProt O75191)
inactive: vemurafenib 0.094 | [1] 0.023 | barasertib 0.018 | [2] 0.014 | volasertib -0.086 | [3] -0.006 | [4] 0.132 | [5] -0.049 | saracatinib -0.01 | sotrastaurin -0.019

XXYLT1 (UniProt Q8NBI6)
inactive: vemurafenib 0.089 | [1] 0.028 | barasertib 0.031 | [2] -0.038 | volasertib -0.014 | [3] -0.001 | [4] 0.018 | [5] 0.026 | saracatinib 0.029 | sotrastaurin -0.012

ZBTB33 (UniProt Q86T24)
inactive: vemurafenib 0.01 | [1] -0.017 | barasertib -0.199 | [2] -0.002 | [3] 0 | [4] 0.034 | [5] -0.008 | saracatinib 0.033 | sotrastaurin 0.015
active: volasertib -0.673

YTHDF2 (UniProt Q9Y5A9)
inactive: vemurafenib -0.015 | [1] 0.019 | barasertib 0.108 | [2] 0.037 | volasertib -0.079 | [3] 0.129 | [4] 0.163 | [5] -0.107 | saracatinib 0.062 | sotrastaurin -0.102

ZFP91 (UniProt Q96JP5)
inactive: vemurafenib -0.005 | [1] 0.029 | barasertib -0.009 | [2] 0.053 | volasertib -0.014 | [3] -0.056 | [4] 0.093 | [5] -0.111 | saracatinib -0.005 | sotrastaurin 0.008

YLPM1 (UniProt P49750)
inactive: vemurafenib 0.062 | [1] 0.005 | barasertib 0.032 | [2] 0.069 | volasertib -0.019 | [3] -0.018 | [4] 0.165 | [5] -0.085 | saracatinib 0.033 | sotrastaurin 0.012
